# Data as given in the supplement of paper PMC10032668.
# Protein sequences, listed by entry. Tags and fused reporters are not part of them.
# GRWD1, Q9BQ67, UniProt Q9BQ67, whole entry: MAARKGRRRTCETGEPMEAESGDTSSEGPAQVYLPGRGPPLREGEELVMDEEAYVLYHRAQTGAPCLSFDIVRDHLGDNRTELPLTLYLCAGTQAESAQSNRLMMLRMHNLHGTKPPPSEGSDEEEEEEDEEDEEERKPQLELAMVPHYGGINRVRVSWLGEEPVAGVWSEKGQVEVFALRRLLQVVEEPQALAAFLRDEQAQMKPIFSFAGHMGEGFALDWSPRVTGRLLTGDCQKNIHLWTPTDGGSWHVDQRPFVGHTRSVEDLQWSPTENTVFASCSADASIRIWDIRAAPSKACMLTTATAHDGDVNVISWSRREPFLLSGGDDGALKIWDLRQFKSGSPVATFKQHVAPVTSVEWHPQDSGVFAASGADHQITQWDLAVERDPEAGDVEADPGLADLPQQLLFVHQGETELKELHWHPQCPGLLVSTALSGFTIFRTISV
# PLK1, P53350, UniProt P53350, whole entry: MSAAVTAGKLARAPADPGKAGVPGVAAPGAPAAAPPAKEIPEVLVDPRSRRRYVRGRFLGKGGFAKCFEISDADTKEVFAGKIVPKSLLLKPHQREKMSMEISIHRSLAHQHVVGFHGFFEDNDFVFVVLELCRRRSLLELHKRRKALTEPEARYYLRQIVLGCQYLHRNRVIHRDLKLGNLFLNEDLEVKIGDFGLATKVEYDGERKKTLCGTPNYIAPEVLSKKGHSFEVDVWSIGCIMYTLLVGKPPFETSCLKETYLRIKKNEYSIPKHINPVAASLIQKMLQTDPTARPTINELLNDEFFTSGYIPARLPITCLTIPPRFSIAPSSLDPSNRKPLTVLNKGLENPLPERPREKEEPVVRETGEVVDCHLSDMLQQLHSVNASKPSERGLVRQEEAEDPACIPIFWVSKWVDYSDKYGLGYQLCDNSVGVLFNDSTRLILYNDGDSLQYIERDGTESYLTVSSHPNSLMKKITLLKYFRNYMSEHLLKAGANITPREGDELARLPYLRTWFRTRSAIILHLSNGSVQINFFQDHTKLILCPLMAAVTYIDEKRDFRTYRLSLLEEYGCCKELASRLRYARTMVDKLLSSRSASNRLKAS
# The other results are listed elsewhere or left out. The list holds hits alone, and they repeat only in part.
# B1: CYLD (peptide)
# chain: MVLHSHPEFLS
# Key:
# Assay in all cases: PRISMA enrichment of interactor (LFQ) in peptide spot vs all other peptide spots (log2 fold change); higher = stronger / more specific binding of the interactor to the peptide
# ABT1, Q9ULW3 = target: ABT1, Q9ULW3
# Experimental: (§1)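 PRISMA: 221 full-length sORF-encoded peptides (3-15 aa), plus SOS1/GLUT1 control peptides, were spot-synthesized on cellulose membranes in triplicate. Membranes were incubated with HEK293T lysate, and bound proteins were identified by LC-MS/MS with LFQ. Enrichment is the log2 fold change versus all other peptide spots; only significant interactors are listed (cutoff c=6, x0=2.8).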
# CDCA7L, Q96GN5 = target: CDCA7L, Q96GN5
# Experimental: as §1
# CPSF3, Q9UKF6 = target: CPSF3, Q9UKF6
# Experimental: as §1
# CSNK1E, P49674 = target: CSNK1E, P49674
# Experimental: as §1
# DNAJA3, Q96EY1 = target: DNAJA3, Q96EY1
# Experimental: as §1
# EMILIN1, Q9Y6C2 = target: EMILIN1, Q9Y6C2
# Experimental: as §1
# FAM168A, Q92567 = target: FAM168A, Q92567
# Experimental: as §1
# FAM98A, Q8NCA5 = target: FAM98A, Q8NCA5
# Experimental: as §1
# GRWD1, Q9BQ67 = target: GRWD1, Q9BQ67
# Experimental: as §1
# PLK1, P53350 = target: PLK1, P53350
# Experimental: as §1
# POLDIP2, Q9Y2S7 = target: POLDIP2, Q9Y2S7
# Experimental: as §1
# RAB2A, P61019 = target: RAB2A, P61019
# Experimental: as §1
# SCPEP1, Q9HB40 = target: SCPEP1, Q9HB40
# Experimental: as §1
# SSBP1, Q04837 = target: SSBP1, Q04837
# Experimental: as §1
# TOMM40, O96008 = target: TOMM40, O96008
# Experimental: as §1
# ZBTB10, Q96DT7 = target: ZBTB10, Q96DT7
# Experimental: as §1
# ZNF768, Q9H5H4 = target: ZNF768, Q9H5H4
# Experimental: as §1
binder,measurement,setting,value
B1,PRISMA enrichment of interactor (log2),"ABT1, Q9ULW3",3.92
same,PRISMA enrichment of interactor (log2),"CDCA7L, Q96GN5",4.03
same,PRISMA enrichment of interactor (log2),"CPSF3, Q9UKF6",4.59
same,PRISMA enrichment of interactor (log2),"CSNK1E, P49674",6.36
same,PRISMA enrichment of interactor (log2),"DNAJA3, Q96EY1",6.32
same,PRISMA enrichment of interactor (log2),"EMILIN1, Q9Y6C2",5.05
same,PRISMA enrichment of interactor (log2),"FAM168A, Q92567",5.15
same,PRISMA enrichment of interactor (log2),"FAM98A, Q8NCA5",7.76
same,PRISMA enrichment of interactor (log2),"GRWD1, Q9BQ67",6.94
same,PRISMA enrichment of interactor (log2),"PLK1, P53350",7.8
same,PRISMA enrichment of interactor (log2),"POLDIP2, Q9Y2S7",6.11
same,PRISMA enrichment of interactor (log2),"RAB2A, P61019",6.22
same,PRISMA enrichment of interactor (log2),"SCPEP1, Q9HB40",6.15
same,PRISMA enrichment of interactor (log2),"SSBP1, Q04837",5.09
same,PRISMA enrichment of interactor (log2),"TOMM40, O96008",5.32
same,PRISMA enrichment of interactor (log2),"ZBTB10, Q96DT7",4.92
same,PRISMA enrichment of interactor (log2),"ZNF768, Q9H5H4",6.13

# Another view of some results above.
binder	measurement	setting	value
B1	PRISMA enrichment of interactor (log2)	CDCA7L, Q96GN5	4.03
same	PRISMA enrichment of interactor (log2)	CSNK1E, P49674	6.36
same	PRISMA enrichment of interactor (log2)	RAB2A, P61019	6.22
same	PRISMA enrichment of interactor (log2)	SSBP1, Q04837	5.09
same	PRISMA enrichment of interactor (log2)	TOMM40, O96008	5.32
